Some of the results follow.
What was measured:
Assay in all cases: log2 fold change, soluble protein after heating vs DMSO (PISA); higher = thermal stabilisation; K562 lysate, 10 uM; active = over 0.2 and 3.5 SD of the protein, either way, in both replicates (recomputed)
erlotinib = compound: C#Cc1cccc(Nc2ncnc3cc(OCCOC)c(OCCOC)cc23)c1 [erlotinib]
Summary of the method: (§1)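 Quantification was by TMTpro 16plex LC-MS/MS with equalised channel sums, applied to the supernatant after 21,000xg for 90 min. Samples were crude K562 extract at 1 mg/mL protein in PBS pH 7.4 with 1 mM MgCl2, treated with 10 μM compound for 30 min, heated for 3 min across 48°C-58°C, pooled and brought to 0.5% NP-40 at 4°C. Values are log-two fold changes in thermal stability relative to solvent controls, from duplicates.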

Chains of the proteins cited; added tags and fusions are not shown. Lines headed by an entry give the natural chain unless they say otherwise; changes in a name come on top.
UniProt Q9BSJ8: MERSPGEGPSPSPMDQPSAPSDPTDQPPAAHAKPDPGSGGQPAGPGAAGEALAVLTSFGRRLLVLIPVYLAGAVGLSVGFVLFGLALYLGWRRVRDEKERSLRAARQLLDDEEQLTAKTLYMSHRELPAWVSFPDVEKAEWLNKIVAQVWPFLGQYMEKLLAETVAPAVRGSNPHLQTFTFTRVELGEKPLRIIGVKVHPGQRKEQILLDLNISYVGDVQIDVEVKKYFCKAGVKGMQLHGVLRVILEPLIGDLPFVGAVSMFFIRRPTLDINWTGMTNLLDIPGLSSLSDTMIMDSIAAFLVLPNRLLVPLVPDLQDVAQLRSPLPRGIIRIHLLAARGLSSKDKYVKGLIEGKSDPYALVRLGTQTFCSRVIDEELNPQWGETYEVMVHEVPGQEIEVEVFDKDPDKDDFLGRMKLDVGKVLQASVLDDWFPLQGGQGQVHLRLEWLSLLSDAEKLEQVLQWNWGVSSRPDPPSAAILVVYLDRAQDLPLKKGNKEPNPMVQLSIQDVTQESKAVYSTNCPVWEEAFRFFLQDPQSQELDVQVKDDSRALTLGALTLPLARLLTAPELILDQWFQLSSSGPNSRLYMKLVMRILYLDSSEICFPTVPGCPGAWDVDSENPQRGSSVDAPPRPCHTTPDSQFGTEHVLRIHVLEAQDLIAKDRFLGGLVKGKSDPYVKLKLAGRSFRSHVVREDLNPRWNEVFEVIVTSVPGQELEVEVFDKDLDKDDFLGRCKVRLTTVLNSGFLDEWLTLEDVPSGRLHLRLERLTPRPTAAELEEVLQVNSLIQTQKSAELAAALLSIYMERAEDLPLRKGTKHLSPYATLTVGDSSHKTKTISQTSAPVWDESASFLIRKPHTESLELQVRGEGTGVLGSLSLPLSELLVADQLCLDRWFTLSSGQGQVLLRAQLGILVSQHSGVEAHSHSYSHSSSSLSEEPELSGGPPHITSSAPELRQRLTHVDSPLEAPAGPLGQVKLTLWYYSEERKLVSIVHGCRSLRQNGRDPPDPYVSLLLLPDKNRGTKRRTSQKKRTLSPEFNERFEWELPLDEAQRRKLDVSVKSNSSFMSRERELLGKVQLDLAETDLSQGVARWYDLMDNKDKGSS
UniProt O94905: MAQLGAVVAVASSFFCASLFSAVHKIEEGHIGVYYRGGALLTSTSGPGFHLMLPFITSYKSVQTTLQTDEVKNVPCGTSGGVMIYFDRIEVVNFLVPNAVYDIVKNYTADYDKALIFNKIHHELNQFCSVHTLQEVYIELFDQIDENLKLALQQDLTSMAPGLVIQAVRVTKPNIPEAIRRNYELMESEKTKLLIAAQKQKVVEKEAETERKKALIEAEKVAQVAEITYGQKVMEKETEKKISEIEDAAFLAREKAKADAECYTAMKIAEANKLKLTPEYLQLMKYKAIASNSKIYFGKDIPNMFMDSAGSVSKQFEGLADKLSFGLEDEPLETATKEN
UniProt Q8IXS8: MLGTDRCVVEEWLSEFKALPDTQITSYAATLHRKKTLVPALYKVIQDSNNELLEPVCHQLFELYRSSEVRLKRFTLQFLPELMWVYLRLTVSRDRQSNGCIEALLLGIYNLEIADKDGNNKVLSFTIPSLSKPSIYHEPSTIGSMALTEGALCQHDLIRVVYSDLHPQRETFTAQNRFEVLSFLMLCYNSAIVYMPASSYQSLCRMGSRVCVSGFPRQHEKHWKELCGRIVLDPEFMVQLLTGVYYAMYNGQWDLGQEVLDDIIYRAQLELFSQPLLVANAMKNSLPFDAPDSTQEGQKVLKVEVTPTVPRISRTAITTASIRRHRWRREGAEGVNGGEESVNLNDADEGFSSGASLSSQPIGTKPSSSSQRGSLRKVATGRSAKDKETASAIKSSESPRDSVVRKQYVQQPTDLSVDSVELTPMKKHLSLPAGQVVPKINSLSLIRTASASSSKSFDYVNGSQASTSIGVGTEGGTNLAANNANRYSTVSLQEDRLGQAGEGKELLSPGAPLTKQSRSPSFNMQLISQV
UniProt Q96EK7: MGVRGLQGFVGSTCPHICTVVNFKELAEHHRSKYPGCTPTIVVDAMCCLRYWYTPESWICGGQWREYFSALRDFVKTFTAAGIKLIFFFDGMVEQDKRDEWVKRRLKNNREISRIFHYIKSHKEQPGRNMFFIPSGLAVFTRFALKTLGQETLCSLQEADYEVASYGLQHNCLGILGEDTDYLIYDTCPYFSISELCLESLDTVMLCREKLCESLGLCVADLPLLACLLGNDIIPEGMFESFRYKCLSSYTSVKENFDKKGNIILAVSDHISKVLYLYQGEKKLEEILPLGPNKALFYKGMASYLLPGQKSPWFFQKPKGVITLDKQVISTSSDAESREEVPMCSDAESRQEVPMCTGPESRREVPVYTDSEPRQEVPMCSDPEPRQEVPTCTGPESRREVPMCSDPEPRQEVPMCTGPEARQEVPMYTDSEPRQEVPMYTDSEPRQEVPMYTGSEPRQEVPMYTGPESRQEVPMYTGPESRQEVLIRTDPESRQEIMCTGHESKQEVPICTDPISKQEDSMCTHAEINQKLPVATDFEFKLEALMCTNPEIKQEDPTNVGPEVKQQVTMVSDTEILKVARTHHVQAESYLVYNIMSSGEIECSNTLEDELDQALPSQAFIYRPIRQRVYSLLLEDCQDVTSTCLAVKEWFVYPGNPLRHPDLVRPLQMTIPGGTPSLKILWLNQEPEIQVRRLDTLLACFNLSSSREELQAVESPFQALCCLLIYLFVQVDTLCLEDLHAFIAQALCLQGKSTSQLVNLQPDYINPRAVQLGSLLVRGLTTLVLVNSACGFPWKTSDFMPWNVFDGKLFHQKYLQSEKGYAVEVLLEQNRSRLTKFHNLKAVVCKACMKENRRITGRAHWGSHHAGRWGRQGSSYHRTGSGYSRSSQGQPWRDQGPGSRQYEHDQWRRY
UniProt Q99504: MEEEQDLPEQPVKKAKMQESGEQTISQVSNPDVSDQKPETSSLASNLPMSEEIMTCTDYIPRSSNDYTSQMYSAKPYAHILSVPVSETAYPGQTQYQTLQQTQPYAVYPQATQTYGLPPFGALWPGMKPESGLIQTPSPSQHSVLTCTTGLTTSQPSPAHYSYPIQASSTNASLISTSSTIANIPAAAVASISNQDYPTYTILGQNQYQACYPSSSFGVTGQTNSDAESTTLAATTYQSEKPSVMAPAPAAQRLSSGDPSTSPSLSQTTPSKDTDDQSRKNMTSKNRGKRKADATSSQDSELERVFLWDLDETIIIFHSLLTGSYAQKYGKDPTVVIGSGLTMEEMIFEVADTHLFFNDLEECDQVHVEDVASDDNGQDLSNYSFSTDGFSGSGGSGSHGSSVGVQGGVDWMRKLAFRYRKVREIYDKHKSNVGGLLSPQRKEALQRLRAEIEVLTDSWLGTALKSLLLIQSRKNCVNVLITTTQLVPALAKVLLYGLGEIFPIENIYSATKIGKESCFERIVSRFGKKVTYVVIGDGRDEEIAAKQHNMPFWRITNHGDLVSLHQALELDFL
UniProt Q92520: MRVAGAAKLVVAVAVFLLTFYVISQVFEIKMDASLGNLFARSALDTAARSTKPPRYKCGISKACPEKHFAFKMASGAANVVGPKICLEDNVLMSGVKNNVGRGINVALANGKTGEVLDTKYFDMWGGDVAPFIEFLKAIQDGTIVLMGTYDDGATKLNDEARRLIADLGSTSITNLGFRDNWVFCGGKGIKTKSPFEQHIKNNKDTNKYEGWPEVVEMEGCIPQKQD
UniProt Q96GK7: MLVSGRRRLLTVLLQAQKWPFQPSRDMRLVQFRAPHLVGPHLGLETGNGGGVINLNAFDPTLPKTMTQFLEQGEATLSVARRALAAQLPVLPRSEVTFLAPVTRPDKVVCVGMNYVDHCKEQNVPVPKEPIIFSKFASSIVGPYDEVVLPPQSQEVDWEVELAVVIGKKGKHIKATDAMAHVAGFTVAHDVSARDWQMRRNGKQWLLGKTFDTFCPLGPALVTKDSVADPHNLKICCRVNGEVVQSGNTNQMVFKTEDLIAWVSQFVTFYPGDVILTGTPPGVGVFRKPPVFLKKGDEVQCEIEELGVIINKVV
UniProt Q9NZB2: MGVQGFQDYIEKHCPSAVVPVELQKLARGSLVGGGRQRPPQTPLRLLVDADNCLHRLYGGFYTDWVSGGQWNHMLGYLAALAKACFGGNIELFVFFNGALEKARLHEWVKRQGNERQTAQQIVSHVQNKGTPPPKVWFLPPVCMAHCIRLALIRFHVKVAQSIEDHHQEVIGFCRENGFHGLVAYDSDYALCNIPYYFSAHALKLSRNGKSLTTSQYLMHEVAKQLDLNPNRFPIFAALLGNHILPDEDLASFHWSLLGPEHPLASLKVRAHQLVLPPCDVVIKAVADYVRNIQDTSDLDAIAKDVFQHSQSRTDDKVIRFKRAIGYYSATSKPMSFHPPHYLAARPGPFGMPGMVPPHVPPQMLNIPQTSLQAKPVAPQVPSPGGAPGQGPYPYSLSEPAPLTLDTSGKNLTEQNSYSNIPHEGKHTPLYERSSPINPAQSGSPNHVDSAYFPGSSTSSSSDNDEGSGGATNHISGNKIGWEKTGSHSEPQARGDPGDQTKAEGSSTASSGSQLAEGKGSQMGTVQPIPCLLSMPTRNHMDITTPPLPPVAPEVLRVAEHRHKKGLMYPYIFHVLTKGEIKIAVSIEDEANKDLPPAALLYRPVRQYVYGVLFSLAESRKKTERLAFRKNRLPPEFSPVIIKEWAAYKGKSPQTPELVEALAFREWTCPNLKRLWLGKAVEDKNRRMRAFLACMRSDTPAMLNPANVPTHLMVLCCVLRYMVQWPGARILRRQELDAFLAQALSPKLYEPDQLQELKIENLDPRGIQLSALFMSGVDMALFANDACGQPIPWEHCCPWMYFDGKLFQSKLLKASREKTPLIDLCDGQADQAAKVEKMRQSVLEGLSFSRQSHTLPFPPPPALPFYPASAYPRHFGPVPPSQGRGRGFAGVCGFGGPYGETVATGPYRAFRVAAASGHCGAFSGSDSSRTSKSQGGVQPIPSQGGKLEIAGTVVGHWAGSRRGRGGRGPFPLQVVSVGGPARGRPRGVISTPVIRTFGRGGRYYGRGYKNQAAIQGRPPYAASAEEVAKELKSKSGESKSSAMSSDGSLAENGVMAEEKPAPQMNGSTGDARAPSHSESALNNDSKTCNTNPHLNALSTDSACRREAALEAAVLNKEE
UniProt Q9H0Q0: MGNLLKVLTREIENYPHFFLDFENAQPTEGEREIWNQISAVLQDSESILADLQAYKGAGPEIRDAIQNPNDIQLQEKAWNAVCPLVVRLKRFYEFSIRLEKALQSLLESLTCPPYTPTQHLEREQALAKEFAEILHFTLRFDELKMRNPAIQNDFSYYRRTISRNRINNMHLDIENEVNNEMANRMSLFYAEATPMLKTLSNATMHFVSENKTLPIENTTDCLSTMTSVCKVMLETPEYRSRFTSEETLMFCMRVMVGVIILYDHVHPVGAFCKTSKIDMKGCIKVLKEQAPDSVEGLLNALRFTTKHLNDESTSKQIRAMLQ
UniProt Q15910, whole entry, looked up: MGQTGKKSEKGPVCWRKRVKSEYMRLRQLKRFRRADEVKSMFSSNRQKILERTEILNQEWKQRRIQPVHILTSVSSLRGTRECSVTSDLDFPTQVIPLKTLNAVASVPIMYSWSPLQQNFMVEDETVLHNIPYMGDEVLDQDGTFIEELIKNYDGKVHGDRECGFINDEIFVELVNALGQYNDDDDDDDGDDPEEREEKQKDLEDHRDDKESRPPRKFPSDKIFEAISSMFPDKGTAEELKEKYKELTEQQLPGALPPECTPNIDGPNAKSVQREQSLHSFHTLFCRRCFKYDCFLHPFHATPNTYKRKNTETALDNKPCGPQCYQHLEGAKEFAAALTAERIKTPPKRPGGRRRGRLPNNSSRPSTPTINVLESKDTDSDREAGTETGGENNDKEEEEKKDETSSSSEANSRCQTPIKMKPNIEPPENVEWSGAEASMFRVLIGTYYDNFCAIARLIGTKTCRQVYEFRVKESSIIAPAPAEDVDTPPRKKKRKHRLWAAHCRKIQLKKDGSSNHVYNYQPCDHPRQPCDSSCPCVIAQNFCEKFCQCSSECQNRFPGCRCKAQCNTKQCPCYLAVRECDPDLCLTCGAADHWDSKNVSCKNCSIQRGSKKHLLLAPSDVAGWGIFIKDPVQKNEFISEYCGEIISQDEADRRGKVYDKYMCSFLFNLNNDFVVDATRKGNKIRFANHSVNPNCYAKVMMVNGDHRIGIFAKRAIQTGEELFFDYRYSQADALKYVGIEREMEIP
UniProt P38117: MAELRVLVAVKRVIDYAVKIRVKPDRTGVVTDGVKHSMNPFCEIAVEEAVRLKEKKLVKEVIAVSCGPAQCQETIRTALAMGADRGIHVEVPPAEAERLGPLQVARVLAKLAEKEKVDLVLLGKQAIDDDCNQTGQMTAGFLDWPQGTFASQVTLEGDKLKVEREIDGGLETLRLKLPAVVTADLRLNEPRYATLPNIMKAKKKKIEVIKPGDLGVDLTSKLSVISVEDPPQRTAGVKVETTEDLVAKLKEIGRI
UniProt Q96A26: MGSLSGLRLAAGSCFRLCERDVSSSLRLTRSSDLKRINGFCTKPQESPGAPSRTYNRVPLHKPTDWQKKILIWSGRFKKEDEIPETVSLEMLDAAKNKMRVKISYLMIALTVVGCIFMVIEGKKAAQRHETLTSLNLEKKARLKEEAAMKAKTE

[1] = compound: C/C(=N\NC(=O)C1=CC(=CC=C1)S(=O)(=O)N2CCOCC2)/C3=C(C=CC(=C3)Cl)O
Summary of the method: as §1

[2] = compound: C1=CC(=CC=C1C2=NC3=C(N2)C=C(C=C3)C(=O)N)OC4=CC=C(C=C4)Cl
Summary of the method: as §1

[3] = compound: C1=CC2=C(C=CC(=C2)/C=C\3/C(=O)NC(=NCC4=CC=CS4)S3)N=C1
Summary of the method: as §1

[4] = compound: C1=CC2=NC=CN=C2C=C1/C=C/3\C(=O)NC(=O)S3
Summary of the method: as §1

[5] = compound: C1=CC=C(C=C1)C2=NC(=C(N2)C3=CC=NC=C3)C4=CC(=C(C=C4)Cl)O
Summary of the method: as §1

[6] = compound: C1=CC=C2C(=C1)C3=NNC4=CC=CC(=C43)C2=O
Summary of the method: as §1

[7] = compound: C1CCN(C1)C(=O)NC2=CC=CC(=C2)NC3=NC=C(C(=N3)NCCC4=CN=CN4)Br
Summary of the method: as §1

[8] = compound: C1CN(CCC1(CC2=CC=C(C=C2)Cl)N)C3=NC=NC4=C3C=CN4
Summary of the method: as §1

IRAK-1-4 Inhibitor I = compound: C1COCCN1CCN2C3=CC=CC=C3N=C2NC(=O)C4=CC(=CC=C4)[N+](=O)[O-] [IRAK-1-4 Inhibitor I]
Summary of the method: as §1

Measured: log2 fold change

ESYT1 isoform 2 (UniProt Q9BSJ8)
inactive: erlotinib -0.007 | [1] 0.033 | [2] 0.022 | [3] 0.008 | [4] -0.029 | [5] -0.017 | [6] 0.007 | [7] 0.002 | [8] -0.009 | IRAK-1-4 Inhibitor I -0.014

FAM136A (UniProt Q96C01)
inactive: erlotinib 0.003 | [1] 0.039 | [2] 0.03 | [3] 0.018 | [4] -0.009 | [5] 0.001 | [6] -0.022 | [7] -0.007 | [8] 0.063 | IRAK-1-4 Inhibitor I -0.002

ESPL1 (UniProt Q14674)
inactive: erlotinib 0.147 | [1] 0.019 | [2] 0.074 | [3] -0.086 | [4] 0.009 | [5] -0.011 | [6] 0.054 | [7] -0.025 | [8] 0.006 | IRAK-1-4 Inhibitor I -0.028

FAM3A (UniProt P98173)
inactive: erlotinib -0.047 | [1] 0.024 | [2] 0.005 | [3] -0.009 | [4] 0.143 | [5] -0.048 | [6] -0.023 | [7] 0.021 | [8] -0.043 | IRAK-1-4 Inhibitor I 0.055

FAM50A (UniProt Q14320)
inactive: erlotinib -0.058 | [1] -0.019 | [2] -0.004 | [3] -0.023 | [4] -0.029 | [5] -0.016 | [6] 0.031 | [7] 0.021 | [8] -0.02 | IRAK-1-4 Inhibitor I -0.036

ERLIN2 (UniProt O94905)
inactive: erlotinib -0.028 | [1] 0.051 | [2] -0.1 | [3] -0.002 | [4] -0.047 | [5] -0.019 | [6] -0.031 | [7] -0.039 | [8] 0.006 | IRAK-1-4 Inhibitor I -0.013

FAM126B (UniProt Q8IXS8)
inactive: erlotinib 0.084 | [1] -0.045 | [2] 0.187 | [3] 0.075 | [4] 0.042 | [5] -0.054 | [6] -0.017 | [7] -0.028 | [8] 0.113 | IRAK-1-4 Inhibitor I 0.033

FAM122B isoform 3 (UniProt Q7Z309)
inactive: erlotinib 0.086 | [1] 0.01 | [2] -0.212 | [3] 0.039 | [4] -0.055 | [5] -0.056 | [6] -0.09 | [7] -0.239 | [8] -0.416 | IRAK-1-4 Inhibitor I 0.108

Quoted from above (2 entries):
ERLIN2 (UniProt O94905)
inactive: erlotinib -0.028 | [1] 0.051 | [2] -0.1 | [3] -0.002 | [4] -0.047 | [5] -0.019 | [6] -0.031 | [7] -0.039 | [8] 0.006 | IRAK-1-4 Inhibitor I -0.013

FAM126B (UniProt Q8IXS8)
inactive: erlotinib 0.084 | [1] -0.045 | [2] 0.187 | [3] 0.075 | [4] 0.042 | [5] -0.054 | [6] -0.017 | [7] -0.028 | [8] 0.113 | IRAK-1-4 Inhibitor I 0.033

(continued)

EXOSC1 (UniProt Q9Y3B2)
inactive: erlotinib 0.225 | [1] 0.031 | [2] -0.065 | [3] -0.028 | [4] 0.052 | [5] 0.057 | [6] 0.001 | [7] -0.021 | [8] 0.001 | IRAK-1-4 Inhibitor I -0.039

FAM120B (UniProt Q96EK7)
inactive: erlotinib 0.056 | [1] -0.032 | [2] 0.036 | [3] 0.035 | [4] 0.02 | [5] -0.004 | [6] 0.044 | [7] -0.013 | [8] 0.007 | IRAK-1-4 Inhibitor I 0.009

EXOG (UniProt Q9Y2C4)
inactive: erlotinib 0.03 | [1] -0.099 | [2] 0.174 | [3] 0.017 | [4] -0.082 | [5] 0.039 | [6] -0.03 | [7] -0.121 | [8] -0.003 | IRAK-1-4 Inhibitor I 0.067

ETNK1 (UniProt Q9HBU6)
inactive: erlotinib -0.005 | [1] -0.053 | [2] 0.08 | [3] -0.03 | [4] 0.02 | [5] -0.007 | [6] -0.013 | [7] -0.03 | [8] 0.036 | IRAK-1-4 Inhibitor I -0.04

EXOC6 (UniProt Q8TAG9)
inactive: erlotinib 0 | [1] -0.045 | [2] -0.062 | [3] -0.058 | [4] -0.044 | [5] 0.005 | [6] -0.043 | [7] 0.018 | [8] 0.008 | IRAK-1-4 Inhibitor I 0.013

FAHD2B (UniProt Q6P2I3)
inactive: erlotinib -0.14 | [1] -0.045 | [2] 0.219 | [3] -0.06 | [4] 0.06 | [5] 0.093 | [6] -0.056 | [7] -0.144 | [8] 0.243 | IRAK-1-4 Inhibitor I 0.043

FAM78A (UniProt Q5JUQ0)
inactive: erlotinib -0.137 | [1] -0.106 | [2] -0.066 | [3] 0.03 | [4] -0.023 | [5] 0.07 | [6] -0.039 | [7] -0.075 | [8] 0.02 | IRAK-1-4 Inhibitor I 0.059

EYA3 (UniProt Q99504)
inactive: erlotinib 0.034 | [1] -0.112 | [2] -0.014 | [3] -0.005 | [4] -0.04 | [5] -0.08 | [6] -0.048 | [7] -0.161 | [8] 0.06 | IRAK-1-4 Inhibitor I 0.002

ERMP1 (UniProt Q7Z2K6)
inactive: erlotinib 0.015 | [1] -0.002 | [2] -0.009 | [3] 0.019 | [4] -0.004 | [5] -0.012 | [6] -0.041 | [7] 0.002 | [8] 0.016 | IRAK-1-4 Inhibitor I 0.002

FAM3C (UniProt Q92520)
inactive: erlotinib -0.018 | [1] -0.039 | [2] -0.02 | [3] 0.055 | [4] -0.041 | [5] 0.015 | [6] -0.067 | [7] -0.018 | [8] 0.016 | IRAK-1-4 Inhibitor I 0.008

FAHD2A (UniProt Q96GK7)
inactive: erlotinib 0.002 | [1] -0.007 | [2] 0.017 | [3] -0.037 | [4] 0.009 | [5] -0.003 | [6] -0.003 | [7] -0.001 | [8] 0.009 | IRAK-1-4 Inhibitor I 0.029

FAM120A isoform 6 (UniProt Q9NZB2)
inactive: erlotinib -0.011 | [1] -0.058 | [2] 0.026 | [3] 0.023 | [4] 0.009 | [5] 0.002 | [6] 0.002 | [7] -0.023 | [8] 0.017 | IRAK-1-4 Inhibitor I 0.031

FAM49A (UniProt Q9H0Q0)
inactive: erlotinib 0.046 | [1] 0.159 | [2] -0.041 | [3] -0.145 | [4] 0.069 | [5] 0.133 | [6] 0 | [7] 0.041 | [8] 0.087 | IRAK-1-4 Inhibitor I -0.064

FADS1, A0A0A0MR51
inactive: erlotinib -0.006 | [1] -0.033 | [2] -0.008 | [3] 0.085 | [4] -0.026 | [5] -0.012 | [6] 0.05 | [7] -0.002 | [8] -0.064 | IRAK-1-4 Inhibitor I -0.026

ERLIN1 (UniProt O75477)
inactive: erlotinib -0.031 | [1] 0.123 | [2] -0.17 | [3] 0.072 | [4] -0.038 | [5] 0.015 | [6] -0.02 | [7] -0.015 | [8] -0.046 | IRAK-1-4 Inhibitor I -0.071

EZH2 isoform 2 (UniProt Q15910)
inactive: erlotinib 0.051 | [1] -0.148 | [2] 0.035 | [3] -0.003 | [4] 0.109 | [5] -0.011 | [6] 0.023 | [7] 0.059 | [8] -0.099 | IRAK-1-4 Inhibitor I -0.021

EXOSC5 (UniProt Q9NQT4)
inactive: erlotinib 0.034 | [1] -0.096 | [2] -0.001 | [3] -0.021 | [4] 0.022 | [5] -0.009 | [6] -0.018 | [7] 0.021 | [8] 0.007 | IRAK-1-4 Inhibitor I -0.005

ESRRA (UniProt P11474)
inactive: erlotinib 0.065 | [1] 0.171 | [2] -0.037 | [3] 0.06 | [4] -0.131 | [5] -0.033 | [6] -0.112 | [7] -0.018 | [8] 0.2 | IRAK-1-4 Inhibitor I 0.029

FAM118B (UniProt Q9BPY3)
inactive: erlotinib -0.004 | [1] 0.051 | [2] 0.004 | [3] 0.061 | [4] 0.03 | [5] -0.01 | [6] -0.012 | [7] 0.013 | [8] -0.004 | IRAK-1-4 Inhibitor I -0.03

FAH (UniProt P16930)
inactive: erlotinib 0.002 | [1] -0.062 | [2] 0.06 | [3] -0.002 | [4] -0.003 | [5] 0.037 | [6] 0 | [7] -0.043 | [8] -0.013 | IRAK-1-4 Inhibitor I -0.068

ETFB (UniProt P38117)
inactive: erlotinib -0.023 | [1] -0.008 | [2] 0.022 | [3] -0.045 | [4] 0.002 | [5] 0 | [6] -0.017 | [7] -0.004 | [8] 0.021 | IRAK-1-4 Inhibitor I -0.017

FAM162A (UniProt Q96A26)
inactive: erlotinib -0.025 | [1] 0.054 | [2] -0.07 | [3] -0.014 | [4] 0.036 | [5] 0.001 | [6] 0.056 | [7] 0.033 | [8] -0.026 | IRAK-1-4 Inhibitor I -0.019

— the supplement of paper PMC10849652
